These are yes or no findings as the source states them, for the method shown. In cells and extracts the contact can be indirect. Some entries that bind do so weakly or less than the wild type.
Biological target: C-Kv1.2, human Kv1.2 alpha-subunit fused at the N-terminus with TagCFP and bearing S371T (human) (UniProt P16389)
Assay: FRET or BRET

Chains of the proteins cited; added tags and fusions are not shown. Lines headed by an entry give the natural chain unless they say otherwise; changes in a name come on top. A line that says so, or that is headed by a name, gives the form on record, which may keep a tag or linker.
UniProt P16389: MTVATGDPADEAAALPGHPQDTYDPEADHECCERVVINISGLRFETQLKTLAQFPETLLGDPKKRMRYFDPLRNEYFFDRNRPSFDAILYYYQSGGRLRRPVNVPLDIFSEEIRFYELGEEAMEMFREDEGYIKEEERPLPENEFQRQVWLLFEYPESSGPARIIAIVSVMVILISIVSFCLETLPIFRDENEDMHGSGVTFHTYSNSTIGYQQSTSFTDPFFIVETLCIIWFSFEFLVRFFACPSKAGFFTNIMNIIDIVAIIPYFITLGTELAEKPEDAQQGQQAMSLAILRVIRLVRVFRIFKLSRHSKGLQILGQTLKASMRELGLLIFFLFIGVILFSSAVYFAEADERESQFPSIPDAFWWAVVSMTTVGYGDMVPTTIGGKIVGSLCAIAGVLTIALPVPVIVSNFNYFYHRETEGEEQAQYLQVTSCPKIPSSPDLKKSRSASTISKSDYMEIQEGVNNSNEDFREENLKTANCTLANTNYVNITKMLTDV
UniProt Q09470: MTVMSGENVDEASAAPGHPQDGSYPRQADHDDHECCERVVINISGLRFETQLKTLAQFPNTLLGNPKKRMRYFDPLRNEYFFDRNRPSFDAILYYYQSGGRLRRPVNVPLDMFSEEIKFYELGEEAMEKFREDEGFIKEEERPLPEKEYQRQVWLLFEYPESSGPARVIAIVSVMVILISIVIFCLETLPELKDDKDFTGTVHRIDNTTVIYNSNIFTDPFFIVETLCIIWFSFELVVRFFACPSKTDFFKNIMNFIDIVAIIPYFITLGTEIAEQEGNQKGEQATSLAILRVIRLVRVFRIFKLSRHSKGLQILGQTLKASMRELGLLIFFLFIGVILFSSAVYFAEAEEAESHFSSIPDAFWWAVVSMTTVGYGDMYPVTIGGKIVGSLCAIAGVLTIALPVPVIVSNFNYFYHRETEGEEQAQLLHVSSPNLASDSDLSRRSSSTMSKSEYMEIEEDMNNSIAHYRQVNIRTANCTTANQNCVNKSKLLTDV
K-Kv1.1m, the K-Kv1.1 protein bearing mutation T226R (Q09470, form named): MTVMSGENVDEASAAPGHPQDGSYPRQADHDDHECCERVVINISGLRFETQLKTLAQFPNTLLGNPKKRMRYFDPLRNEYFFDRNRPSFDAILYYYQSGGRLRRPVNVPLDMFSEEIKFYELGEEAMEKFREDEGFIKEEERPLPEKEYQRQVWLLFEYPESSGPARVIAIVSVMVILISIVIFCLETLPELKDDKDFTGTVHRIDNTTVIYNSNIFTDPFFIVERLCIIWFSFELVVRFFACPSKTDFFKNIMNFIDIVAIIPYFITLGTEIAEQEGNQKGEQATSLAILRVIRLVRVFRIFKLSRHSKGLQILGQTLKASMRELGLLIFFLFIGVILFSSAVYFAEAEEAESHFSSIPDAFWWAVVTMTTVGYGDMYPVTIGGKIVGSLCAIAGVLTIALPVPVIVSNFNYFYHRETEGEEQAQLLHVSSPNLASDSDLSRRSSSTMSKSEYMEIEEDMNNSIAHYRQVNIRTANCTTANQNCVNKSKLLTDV

## K-Kv1.1m, the K-Kv1.1 protein bearing mutation T226R (from UniProt Q09470 1-495)
  binding: binds

Source: paper PMC12525039
